Values of other authors in US7268161B2, “Comprehensive pharmacologic therapy for treatment of obesity including cysteine” (priority 1999, dated 2007).
At least one structure is not confirmed: it was looked up by name or label, or the drawing left a doubt.

Settings: cited from earlier work

Row | Structure (SMILES) | biological activity of enantiomer
1 | CN(C)CCC[C@]1(c2ccc(F)cc2)OCc2cc(C#N)ccc21 [R-Citalopram] | inactive
2 | CN(C)CCC[C@@]1(c2ccc(F)cc2)OCc2cc(C#N)ccc21 [S-Citalopram] | biologically active
